Results taken from PMC11327110.
No constants are given. Whether binding was seen depends on the method and setting. Some results given as binding are weak or reduced against the parent protein; the word gives no strength.

Sequences of proteins named here, by UniProt entry; tags and fusion partners are left off.
UniProt P28066: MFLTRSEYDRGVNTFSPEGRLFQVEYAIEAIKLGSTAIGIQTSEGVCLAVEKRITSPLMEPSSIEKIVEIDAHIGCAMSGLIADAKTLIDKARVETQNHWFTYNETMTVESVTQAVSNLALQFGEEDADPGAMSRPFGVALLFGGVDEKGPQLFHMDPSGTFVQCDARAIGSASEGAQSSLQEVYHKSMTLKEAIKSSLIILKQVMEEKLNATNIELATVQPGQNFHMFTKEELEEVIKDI
UniProt Q9Y244: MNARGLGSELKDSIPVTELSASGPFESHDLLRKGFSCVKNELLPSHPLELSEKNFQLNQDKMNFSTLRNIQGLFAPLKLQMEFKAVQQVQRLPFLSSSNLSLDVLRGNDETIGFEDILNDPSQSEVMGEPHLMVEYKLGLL
UniProt P25789: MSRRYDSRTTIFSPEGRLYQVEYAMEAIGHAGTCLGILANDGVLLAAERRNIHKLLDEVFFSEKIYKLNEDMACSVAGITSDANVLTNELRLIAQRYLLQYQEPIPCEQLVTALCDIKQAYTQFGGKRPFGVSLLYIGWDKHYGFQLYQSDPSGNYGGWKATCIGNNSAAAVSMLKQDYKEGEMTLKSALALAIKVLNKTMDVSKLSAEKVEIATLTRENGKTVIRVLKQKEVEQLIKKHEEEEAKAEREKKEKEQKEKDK
UniProt O14818: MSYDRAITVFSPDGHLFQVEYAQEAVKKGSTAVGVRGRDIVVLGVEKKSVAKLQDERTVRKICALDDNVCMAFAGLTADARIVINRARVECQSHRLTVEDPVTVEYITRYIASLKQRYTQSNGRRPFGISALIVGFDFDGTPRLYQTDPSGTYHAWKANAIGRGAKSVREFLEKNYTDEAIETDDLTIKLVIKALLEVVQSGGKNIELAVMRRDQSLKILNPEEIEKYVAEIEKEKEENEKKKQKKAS
UniProt P25788: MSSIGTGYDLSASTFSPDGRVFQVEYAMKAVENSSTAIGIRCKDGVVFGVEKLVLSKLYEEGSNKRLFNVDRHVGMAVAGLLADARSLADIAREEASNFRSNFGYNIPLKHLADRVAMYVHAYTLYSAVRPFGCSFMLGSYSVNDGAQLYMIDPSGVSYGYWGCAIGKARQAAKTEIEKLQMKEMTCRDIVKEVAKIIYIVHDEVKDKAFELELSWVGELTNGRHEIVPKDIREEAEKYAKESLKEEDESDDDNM
UniProt P25786: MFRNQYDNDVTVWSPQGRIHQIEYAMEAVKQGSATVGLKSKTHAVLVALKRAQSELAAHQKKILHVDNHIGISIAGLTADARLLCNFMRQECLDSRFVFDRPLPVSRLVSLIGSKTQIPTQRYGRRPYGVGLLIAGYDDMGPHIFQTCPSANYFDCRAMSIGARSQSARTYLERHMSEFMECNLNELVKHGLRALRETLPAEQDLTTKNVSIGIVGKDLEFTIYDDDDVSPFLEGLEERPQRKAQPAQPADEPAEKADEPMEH

What was measured:
[1] = target: proteasome subunit α5 (PSMA5) (human) (UniProt P28066); assay: cryo-EM structure; structure 1 (map 1): α-ring, PAC1–PAC4, POMP, β2; co-expressed in insect cells, purified by the twin-Strep tag on β2 and SEC (pooled fractions C4–C7; 25 mM HEPES pH 7.5, 150 mM NaCl, 1 mM dithiothreitol; 0.25 mM Fos-Choline-8 added); both purified
[2] = target: proteasome maturation protein (POMP) (human) (UniProt Q9Y244); assay: as above
[3] = target: T1, proteasome assembly chaperone 4 (PAC4) (human) (UniProt Q5JS54); assay: as above
T1 sequence: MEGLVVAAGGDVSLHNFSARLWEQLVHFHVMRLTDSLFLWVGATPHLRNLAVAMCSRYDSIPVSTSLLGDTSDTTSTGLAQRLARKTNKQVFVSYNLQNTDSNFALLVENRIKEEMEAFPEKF

[4] = target: proteasome subunit α3 (PSMA4) (human) (UniProt P25789); assay: as above
[5] = target: proteasome subunit α4 (PSMA7) (human) (UniProt O14818); assay: as above
[6] = target: proteasome subunit α7 (PSMA3) (human) (UniProt P25788); assay: as above
[7] = target: proteasome subunit α6 (PSMA1) (human) (UniProt P25786); assay: as above
[8] = target: proteasome maturation protein (POMP) (human) (UniProt Q9Y244); assay: cryo-EM structure; structure 2 (map 2): α-ring, PAC1/PAC2, POMP, β2, β3; same sample as structure 1 (β2-tag purification, SEC fractions C4–C7); both purified
[9] = target: proteasome maturation protein (POMP) (human) (UniProt Q9Y244); assay: cryo-EM structure; structure 3 (map 3): α-ring, PAC1/PAC2, POMP, β2–β4; same sample as structure 1 (β2-tag purification, SEC fractions C4–C7); both purified
[10] = target: proteasome maturation protein (POMP) (human) (UniProt Q9Y244); assay: cryo-EM structure; preholo 20S CP: two fused half-CPs with PAC1/PAC2, POMP and propeptides; β2-tag purification, SEC peak fraction; both purified
[11] = target: proteasome maturation protein (POMP) (human) (UniProt Q9Y244); assay: cryo-EM structure; structure 5 (map 5, half-CP): α-ring, PAC1/PAC2, POMP, complete β-ring; same sample as structure 1 (β2-tag purification, SEC fractions C4–C7); both purified
[12] = target: proteasome maturation protein (POMP) (human) (UniProt Q9Y244); assay: cryo-EM structure; structure 4 (map 4): α-ring, PAC1/PAC2, POMP, β2–β6; same sample as structure 1 (β2-tag purification, SEC fractions C4–C7); both purified

Measured: binding

B1: proteasome assembly chaperone 3 (PAC3) (protein, UniProt Q9BT73 1-122)
chain: MEDTPLVISKQKTEVVCGVPTQVVCTAFSSHILVVVTQFGKMGTLVSLEPSSVASDVSKPVLTTKVLLGQDEPLIHVFAKNLVAFVSQEAGNRAVLLAVAVKDKSMEGLKALREVIRVCQVW
binds: [1] | [2] | [3]

B2: PAC3–PAC4 heterodimer (complex, UniProt Q9BT73 1-122; Q5JS54 1-123)
chain 1: B1 chain
chain 2: T1 sequence
binds: [1] | [4] | [5] | [2] | [6] | [7]

B3: proteasome assembly chaperone 1 (PAC1) (protein, UniProt O95456 1-288)
chain: MAATFFGEVVKAPCRAGTEDEEEEEEGRRETPEDREVRLQLARKREVRLLRRQTKTSLEVSLLEKYPCSKFIIAIGNNAVAFLSSFVMNSGVWEEVGCAKLWNEWCRTTDTTHLSSTEAFCVFYHLKSNPSVFLCQCSCYVAEDQQYQWLEKVFGSCPRKNMQITILTCRHVTDYKTSESTGSLPSPFLRALKTQNFKDSACCPLLEQPNIVHDLPAAVLSYCQVWKIPAILYLCYTDVMKLDLITVEAFKPILSTRSLKGLVKNIPQSTEILKKLMTTNEIQSNIYT
binds: [8] | [9] | [10] | [11] | [12]

B4: proteasome assembly chaperone 4 (PAC4) (protein, UniProt Q5JS54 1-123)
chain: T1 sequence
binds: [1] | [5] | [2]
